Assay results: the supplement of paper PMC4371806
In all, about 2,300 compounds were measured (“plate-normalized OD600 growth (mean of duplicates)”: median about 0.29, lowest 2% from about 0.22 on). The list shows a part of the results.

System: Escherichia coli BW25113
Test: plate-normalized OD600 growth (mean of duplicates) (OD600 (normalized)); higher = more growth (less inhibition)
Details: 10 µM
Procedure: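 E. coli BW25113 in LB (100 µl, 96-well, no shaking) was exposed to 10 µM of each compound from a ~30,000-member library and grown at 37°C for 24 h or 15°C for 48 h, in duplicate. Growth was read as OD600 and the duplicate ODs were normalized across screening plates to correct plate-to-plate variation. Hits were >3σ below the mean OD600 at 15°C and <2σ below the mean at 37°C.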

SMILES | plate-normalized OD600 growth (temperature: 15°C, 48 h) | plate-normalized OD600 growth (temperature: 37°C, 24 h)
CC(C)(Cc1ccc(O)cc1)NC[C@H](O)c1cc(O[C@@H]2O[C@H](C(=O)O)[C@@H](O)[C@H](O)[C@H]2O)cc2c1OCC(=O)N2 | 0.247 | 0.604
CC(C)(C)OC(=O)N[C@H](C#N)Cc1ccccc1 | 0.239 | 0.619
CC1SC2(C(=O)Nc3ccccc32)N(c2ccc(F)cc2)C1=O (stereo not drawn) | 0.224 | 0.649
COC(=O)[C@@H]1C(c2ccccc2)=NN(c2ccccc2)[C@@]1(C(=O)OC)C(C)C | 0.247 | 0.611
Cc1cccc(O)c1N=Cc1cc(C(=O)O)ccc1O | 0.247 | 0.638
N#CC1=C2Sc3ccccc3N2CC(C#N)(c2nc3ccccc3s2)C1 (stereo not drawn) | 0.241 | 0.612
c1ccc2c(c1)CCC(Cc1ccc3ccccc3c1)C2 (stereo not drawn) | 0.223 | 0.601
S=C1NC2(CCCCCC2)Cc2ccccc21 | 0.252 | 0.616
CCC/C=N/NC(=O)c1ccc(N2CCCC2=O)cc1 | 0.26 | 0.647
CC(=O)N(CC(=O)Nc1ccc(C)cc1)c1ccccc1 | 0.214 | 0.646
Cc1onc(-c2c(F)cccc2Cl)c1C(=O)Oc1ccccc1 | 0.273 | 0.617
CC#CCn1c(N2CCCC(=O)C2)nc2c1c(=O)n(Cc1nc(C)c3ccccc3n1)c(=O)n2C | 0.254 | 0.628
COc1ccc(NC(=O)C(C)c2ccc(CC(C)C)cc2)cc1 (stereo not drawn) | 0.243 | 0.592
CCOC(=O)COc1nc(-c2ccccc2)cc(-c2ccccc2)c1C#N | 0.251 | 0.629
C=C(C)C(=O)OCc1ccc2ccc3cccc4ccc1c2c34 | 0.25 | 0.643
COc1ccccc1N(CN1C(=O)CCC1=O)C(C)=O | 0.241 | 0.624
Cc1ccc(S(=O)(=O)N(CCc2ccccc2)CC(=O)N/N=C/c2ccccc2OCc2ccccc2)cc1 | 0.236 | 0.607
Cc1cccc(C2(c3cccc(C)c3)CC2C(=O)Nc2ccc(C#N)cc2)c1 (stereo not drawn) | 0.232 | 0.597
O=C(NCC1CCCO1)C(=O)N/N=C/c1cccc(O)c1 (stereo not drawn) | 0.257 | 0.636
COc1ccc(C(NC(=O)Cc2ccccc2)NC(=O)Cc2ccccc2)cc1OC | 0.238 | 0.617
COC1(c2ccccc2)CC1C(=O)N/N=C/c1ccc(N(C)C)cc1 (stereo not drawn) | 0.229 | 0.626
O=S(=O)(NC(c1ccc(I)cc1)C(Cl)(Cl)Cl)c1ccccc1 (stereo not drawn) | 0.23 | 0.632
Cc1ccc(C)c(NC(=O)C(=O)NCCCn2ccnc2)c1 | 0.256 | 0.611
O=C(CSc1nc2ccccc2s1)Nc1cccn2cc(-c3ccccc3)nc12 | 0.263 | 0.614

SMILES | plate-normalized OD600 growth (temperature: 15°C, 48 h) | plate-normalized OD600 growth (temperature: 37°C, 24 h)
CC1(CC(=O)N/N=C/c2ccc(Cl)c([N+](=O)[O-])c2)OCCO1 | 0.247 | 0.618
COc1ccc(C)cc1NC(=O)C/C(C)=N/NC(=O)COc1cccc(C)c1 | 0.233 | 0.62
CC(C)(O)C#Cc1ccc(/C=N\O)cc1 | 0.251 | 0.627
CC(=O)N(/C=C/C=C/C=C1\Sc2ccccc2C1=O)c1ccccc1 | 0.247 | 0.611
COc1cc(/C=C(\C#N)c2nn(CCO)c(N)c2C#N)ccc1OCc1ccc(C)cc1 | 0.244 | 0.601
O=C1N/C(=N\N=C\c2ccc(Cl)cc2)S/C1=C/c1ccc(-c2ccc(C(=O)O)c(Cl)c2)o1 | 0.256 | 0.616
COc1cc(/C=C2\C(=N)N3N=C(C(F)(F)F)SC3=NC2=O)cc(Cl)c1OCc1ccccc1 | 0.246 | 0.626
Cn1c(=O)[nH]c(=O)c2c1nc(SCc1ccccc1)n2CCCc1ccccc1 | 0.266 | 0.62
Cc1ccc(-n2[nH]c(C)c(C=Nc3cccc(N=Cc4c(C)[nH]n(-c5ccc(C)cc5)c4=O)n3)c2=O)cc1 | 0.249 | 0.626
O=C1CC(C(F)(F)C(F)(F)C(F)(F)C(F)F)=Nc2ccccc2N1 | 0.25 | 0.623
COc1ccc2c(O[C@@H]3C[C@H]4C(=O)N[C@]5(C(=O)NS(=O)(=O)C6CC6)C[C@H]5/C=C\CCCCN(C)C(=O)[C@@H]4C3)cc(-c3nc(C(C)C)cs3)nc2c1C | 0.262 | 0.615
N#Cc1c(N)c(S(=O)(=O)c2ccccc2)coc1=N | 0.249 | 0.604
O=S(=O)(N=C(c1ccccc1)N1CCCCC1)c1ccccc1 | 0.232 | 0.621
O=C(CSc1nc2ccccc2[nH]1)Nc1nc2ccccc2s1 | 0.244 | 0.604
COc1ccc(/C=N/Nc2nnnn2-c2cccc3ccccc23)cc1OC | 0.253 | 0.627
Cc1cc(C(C)(C)C)oc1C(=O)N1CCNCC1 | 0.251 | 0.611
Cc1cc(=O)n(-c2ccccc2)n1CNc1ccc(Cl)cc1Cl | 0.246 | 0.594
CCN(CC)c1ccc(NC(=O)c2c(F)cccc2F)c(N(CC)CC)n1 | 0.235 | 0.602
CSCCC(NC(=O)c1ccccc1)C(=O)OCC(=O)Nc1ccc(C)c(Cl)c1 (stereo not drawn) | 0.246 | 0.612
Cc1cc2c(cc1C)CN(c1ccc(C(=O)N/N=C/c3ccccc3O)cc1)C2 | 0.25 | 0.63
CCOC(=O)c1c(-c2ccc(F)cc2)csc1N | 0.24 | 0.609
CC1(C)CC(=O)C2=C(C1)N(c1cccc([N+](=O)[O-])c1)C(N)=C(C#N)C2c1cccnc1 (stereo not drawn) | 0.256 | 0.613
O=S1(=O)C=C(N2CCOCC2)c2ccccc21 | 0.241 | 0.624
Cc1cccc(Nc2cc(C)nc3ccccc23)c1 | 0.256 | 0.617

Rewritten field by field: entries from further up.
COc1cc(/C=C(\C#N)c2nn(CCO)c(N)c2C#N)ccc1OCc1ccc(C)cc1
  plate-normalized OD600 growth (temperature: 15°C, 48 h): 0.244
  plate-normalized OD600 growth (temperature: 37°C, 24 h): 0.601
CC1(C)CC(=O)C2=C(C1)N(c1cccc([N+](=O)[O-])c1)C(N)=C(C#N)C2c1cccnc1 (stereo not drawn)
  plate-normalized OD600 growth (temperature: 15°C, 48 h): 0.256
  plate-normalized OD600 growth (temperature: 37°C, 24 h): 0.613

Further structures.

SMILES | plate-normalized OD600 growth (temperature: 15°C, 48 h) | plate-normalized OD600 growth (temperature: 37°C, 24 h)
NC(N)=NC(N)=Nc1ccccc1C(F)(F)F | 0.243 | 0.604
CCSc1nc(NC(C)=O)nn1C(C)=O | 0.249 | 0.623
Fc1cnc(N/N=C/c2ccc(Sc3ccccc3)o2)nc1N1CCOCC1 | 0.252 | 0.611
COC(=O)C(NS(=O)(=O)c1ccccc1)C(C)C (stereo not drawn) | 0.232 | 0.636
CCOC(=O)c1cnn(-c2ccc(NS(=O)(=O)c3ccc(Cl)cc3)cc2)c1C(F)(F)F | 0.233 | 0.609
O=[N+]([O-])c1cnc(Sc2n[nH]c(-c3cccs3)n2)s1 | 0.225 | 0.607
CC(=O)N1c2ccccc2NC2=C(C(=O)CC(c3ccc(Cl)c(Cl)c3)C2)C1c1cccnc1 (stereo not drawn) | 0.245 | 0.615
CC1(O)N(CCN)C(=O)OC12CCCCC2 (stereo not drawn) | 0.269 | 0.626
O=C(O)C1C2C=CC(C2)C1C(=O)NCCc1ccncc1 (stereo not drawn) | 0.242 | 0.651
COc1ccc2nc(NC(=O)c3cc4ccccc4o3)sc2c1 | 0.259 | 0.62
Cc1cc(S(=O)(=O)NCCNc2nccc(C(F)(F)F)n2)c(C)cc1Cl | 0.222 | 0.587
NC1=Nc2nc(Nc3ccccc3)sc2/C(=C/c2ccc(O)cc2)N1 | 0.248 | 0.628
CN1N=C(SCc2ccc(Cl)cc2Cl)Sc2c1cnn(C)c2=O | 0.25 | 0.591
CCCCCCNC(=O)NCCCCCC | 0.278 | 0.617
N#C/C(=C\c1ccccc1Cl)c1nc2ccccc2[nH]1 | 0.26 | 0.624
COc1ccc(-c2cn3c4c(=O)n(C)c(=O)n(C)c4nc3n2CCCCO)cc1 | 0.239 | 0.619
C/C(=N/NC(=O)COc1cccc(Cl)c1)c1ccc(Cl)cc1 | 0.248 | 0.631
Cc1nc2sc(C(=O)c3ccc(Cl)cc3)c(N)c2c(C)c1C(=O)Nc1ccccc1 | 0.233 | 0.604
CCOC(=O)CC(NC(=O)c1cc(OC)c(OC)c(OC)c1)c1ccc(C)cc1 (stereo not drawn) | 0.247 | 0.627
Cc1ccc(-c2nc(SCC(=O)C(F)(F)F)c(C#N)cc2C)cc1 | 0.261 | 0.623
O=C(O)c1ccc(S(=O)(=O)c2ccc3c(c2)C(=O)N(c2ccccn2)C3=O)cc1 | 0.221 | 0.618
O=C(CN1C(=O)c2ccccc2C1=O)Oc1ccc2ccccc2c1 | 0.244 | 0.599
Cc1nc(N)ncc1Sc1ccccc1 | 0.259 | 0.602
O=C(O)CCC(=O)N1CC(=O)Nc2ccccc21 | 0.222 | 0.624

SMILES | plate-normalized OD600 growth (temperature: 15°C, 48 h) | plate-normalized OD600 growth (temperature: 37°C, 24 h)
C=CCNC(=S)Nc1sc(C)c(C)c1C(=O)OCC | 0.226 | 0.637
Cc1c(-c2ccnc(N)n2)nnn1-c1ccc(Cl)cc1Cl | 0.242 | 0.636
CN(C)c1ccc(/C=C/c2cc[n+](C)n2C)cc1 | 0.242 | 0.607
N#CCC(=O)N(Cc1ccccc1F)C(=O)NC1CCCCC1 | 0.263 | 0.647
Cc1cc(/C=N/NC(N)=S)c2c(C)ccc(C(C)C)cc1-2 | 0.23 | 0.606
Nc1ccc(-c2nc3ccc(C(=O)c4ccccc4)cc3[nH]2)cc1 | 0.245 | 0.61
Cn1c(NC(=O)c2ccccc2Cl)nc2ccccc21 | 0.253 | 0.598
Cc1ccc(S(=O)(=O)Nc2ccc(C)c([N+](=O)[O-])c2)cc1 | 0.233 | 0.624
COC(=O)c1ccc(NCC(=O)c2ccc(C(C)(C)C)cc2)cc1 | 0.237 | 0.627
Cc1c(C)n(Cc2ccccc2)c2ccc(C(=O)Nc3ncn[nH]3)cc12 | 0.248 | 0.653
C/C(Cn1nnc([N+](=O)[O-])n1)=N/NC(=O)c1cccnc1 | 0.252 | 0.62
COC(=O)c1cc(-c2ccc3c(c2)OCO3)no1 | 0.232 | 0.626
Cc1cc(Br)c2c(c1)c(N=NC(=Nc1ccccc1)c1ccccn1)c(O)n2C | 0.254 | 0.628
Cc1ccc(-c2csc(-c3cccnc3)n2)cc1C | 0.24 | 0.613
CCCOc1ccc(N2C(=O)CC(NNC(=O)c3ccncc3)C2=O)cc1 (stereo not drawn) | 0.221 | 0.621
CCNS(=O)(=O)c1cc(Cl)sc1Cl | 0.253 | 0.623
O=[N+]([O-])c1ccc(-c2ccc(/C=N/Nc3ccccc3)o2)cc1 | 0.235 | 0.584
O=C(N/N=C/c1c2ccccc2cc2ccccc12)c1cccc(C(F)(F)F)c1 | 0.259 | 0.608
CCC(=O)Nc1nc2ccc(C)cc2s1 | 0.246 | 0.603
COc1cc(C2OC(c3cc(C)ccc3[N+](=O)[O-])=NN2C(C)=O)cc(OC)c1OC (stereo not drawn) | 0.248 | 0.619
O=C(NNC(=O)c1ccccc1OCc1ccccc1)c1ccc(Cl)c(Cl)c1 | 0.216 | 0.606
O=C(/C=N/O)Nc1ccccc1C(=O)O | 0.249 | 0.636

Single records (already shown). Order of values: plate-normalized OD600 growth (temperature: 15°C, 48 h) | plate-normalized OD600 growth (temperature: 37°C, 24 h)
COC(=O)c1cc(-c2ccc3c(c2)OCO3)no1 is listed with 0.232 | 0.626
CCC(=O)Nc1nc2ccc(C)cc2s1 is listed with 0.246 | 0.603
CCNS(=O)(=O)c1cc(Cl)sc1Cl is listed with 0.253 | 0.623
Cc1ccc(-c2csc(-c3cccnc3)n2)cc1C is listed with 0.24 | 0.613
